# Assay: peptide made by a vendor
# Conditions: whole synthesis
substance,measurement,value
"H-rerrsssqiGGsrisqyaGrrrqrrkkrG-NH2 (RERKSSSEIGGSRISQYAGRRRQRRKKRG; D-amino acids, retro-inverso, C-terminal amide; PYC35D-TAT peptide (the retroinverted form of PYC35 peptide comprising an N-terminal tat basic region protein transduction domain wherein all amino acids other than glycine are D-amino acids))",purity (crude or final not stated),purity>90%

# Reference: US8946381B2 (Phylogica Limited, priority 2006, dated 2015)
